Assay results as given in article PMC11841300.
Results are given in words; binding and its absence hold for the method and conditions named. Binding seen in cells or lysates may run through a third protein. Some binding calls cover weakened binding; strength is not graded here.

Biological target: T1, KAT8 (human (endogenous in HEK293T)) (UniProt Q9H7Z6)
T1 sequence: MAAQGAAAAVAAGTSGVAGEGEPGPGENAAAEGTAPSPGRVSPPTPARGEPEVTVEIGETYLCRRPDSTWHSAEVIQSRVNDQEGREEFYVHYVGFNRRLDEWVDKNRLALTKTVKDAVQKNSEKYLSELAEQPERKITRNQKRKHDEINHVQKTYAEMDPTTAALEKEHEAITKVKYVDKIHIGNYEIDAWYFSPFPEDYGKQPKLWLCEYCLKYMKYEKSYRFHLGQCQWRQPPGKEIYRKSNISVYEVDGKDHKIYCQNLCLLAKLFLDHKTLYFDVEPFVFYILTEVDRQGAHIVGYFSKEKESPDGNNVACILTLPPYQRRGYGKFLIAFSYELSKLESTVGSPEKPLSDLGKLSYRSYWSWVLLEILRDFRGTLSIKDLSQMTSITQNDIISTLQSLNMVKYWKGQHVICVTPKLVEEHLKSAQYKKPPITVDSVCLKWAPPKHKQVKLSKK
Test: co-IP; HEK293T cell lysates (IP lysis buffer); anti-KAT8 or anti-SEPP1 antibody at 4 °C overnight, Protein A/G agarose, eluates analysed by western blot; normal IgG as negative control

- binding: binds
B1: Selenoprotein P (SEPP1) (protein, UniProt P49908 20-381)
chain: ESQDQSSLCKQPPAWSIRDQDPMLNSNGSVTVVALLQASUYLCILQASKLEDLRVKLKKEGYSNISYIVVNHQGISSRLKYTHLKNKVSEHIPVYQQEENQTDVWTLLNGSKDDFLIYDRCGRLVYHLGLPFSFLTFPYVEEAIKIAYCEKKCGNCSLTTLKDEDFCKRVSLATVDKTVETPSPHYHHEHHHNHGHQHLGSSELSENQQPGAPNAPTHPAPPGLHHHHKHKGQHRQGHPENRDMPASEDLQDLQKKLCRKRCINQLLCKLPTDSELAPRSUCCHCRHLIFEKTGSAITUQCKENLPSLCSUQGLRAEENITESCQURLPPAAUQISQQLIPTEASASURUKNQAKKUEUPSN
